Test results reported in patent publication US20100183625A1, “Treatment of Mucositis with Kallikrein Inhibitors” (Dyax Corp., priority 2009, published 2010).
Changes are numbered by the printed parent chain. “Also recorded” adds a separate entry of the source.

B1: X69-D09: single point mutation of M142-H08 (P1′); HV-CDR3 GGLLLWFRGLKSNYFDY (antibody, V domains shown)
VL: QDIQMTQSPSSLSAFVGDRVTITCRASQPIDNYLNWYHQKPGKAPKLLIYAASRLQSGVPSRLSGSGFGTDFTLTISSLQPEDFGNYYCQQSYTVPYTFGGGTKVEIR
VH: EVQLLESGGGLVQPGGSLRLSCAASGFTFSAYSMIWVRQAPGKGLEWVSYIRPSGGRTTYADSVKGRFTISRDNSKNTLYLQMNSLRAEDTAVYYCARGGLLLWFRGLKSNYFDYWGQGTLVTVSSASTKGPSVFPLAPSSKS
B2: X69-F05: single point mutation of M142-H08 (P1′); HV-CDR3 GGLLLWFRLLKSNYFDY (antibody, V domains shown)
VL: B1 VL
VH: B1 VH with G107L
B3: X69-B08: single point mutation of M142-H08 (P1′); HV-CDR3 GGLLLWFRNLKSNYFDY (antibody, V domains shown)
VL: B1 VL
VH: B1 VH with G107N
B4: X69-A09: single point mutation of M142-H08 (P1′); HV-CDR3 … (antibody, V domains shown)
VL: B1 VL
VH: B1 VH with G107S
B5: X69-F09: single point mutation of M142-H08 (P1′); HV-CDR3 GGLLLWFRSLKSNYFDY (antibody, V domains shown)
VL: B1 VL
VH: B1 VH with G42S, G107S
B6: X69-F01: single point mutation of M142-H08 (P1′); HV-CDR3 GGLLLWFRTLKSNYFDY (antibody, V domains shown)
VL: B1 VL
VH: B1 VH with G42S, G107T
B7: X69-C12: single point mutation of M142-H08 (P1′); HV-CDR3 GGLLLWFRVLKSNYFDY (antibody, V domains shown)
VL: B1 VL
VH: B1 VH with G107V
B8: X69-E01: single point mutation of M142-H08 (P1′); HV-CDR3 GGLLLWFRWLKSNYFDY (antibody, V domains shown)
VL: B1 VL
VH: B1 VH with G107W
B9: X68-E01: single point mutation of M142-H08 (P3); HV-CDR3 GGLLLLFRELKSNYFDY (antibody, V domains shown)
VL: B1 VL
VH: B1 VH with W104L, G107E
B10: X67-E04: single point mutation of M142-H08 (P2); HV-CDR3 GGLLLWDRELKSNYFDY (antibody, V domains shown)
VL: B1 VL
VH: B1 VH with F105D, G107E
B11: X67-H04: single point mutation of M142-H08 (P2); HV-CDR3 GGLLLWERELKSNYFDY (antibody, V domains shown)
VL: B1 VL
VH: B1 VH with F105E, G107E
B12: X67-C09: single point mutation of M142-H08 (P2); HV-CDR3 GGLLLWGRELKSNYFDY (antibody, V domains shown)
VL: B1 VL
VH: B1 VH with F105G, G107E
B13: X67-B04: single point mutation of M142-H08 (P2); HV-CDR3 GGLLLWKRELKSNYFDY (antibody, V domains shown)
VL: B1 VL
VH: B1 VH with F105K, G107E
B14: X67-G09: single point mutation of M142-H08 (P2); HV-CDR3 GGLLLWLRELKSNYFDY (antibody, V domains shown)
VL: B1 VL
VH: B1 VH with F105L, G107E
B15: X67-G05: single point mutation of M142-H08 (P2); HV-CDR3 GGLLLWRRELKSNYFDY (antibody, V domains shown)
VL: B1 VL
VH: B1 VH with F105R, G107E
B16: X67-B03: single point mutation of M142-H08 (P2); HV-CDR3 GGLLLWSRELKSNYFDY (antibody, V domains shown)
VL: B1 VL
VH: B1 VH with F105S, G107E
B17: X67-F10: single point mutation of M142-H08 (P2); HV-CDR3 GGLLLWTRELKSNYFDY (antibody, V domains shown)
VL: B1 VL
VH: B1 VH with F105T, G107E
B18: X67-H01: single point mutation of M142-H08 (P2); HV-CDR3 GGLLLWWRELKSNYFDY (antibody, V domains shown)
VL: B1 VL
VH: B1 VH with F105W, G107E
B19: X67-F08: single point mutation of M142-H08 (P2); HV-CDR3 GGLLLWYRELKSNYFDY (antibody, V domains shown)
VL: B1 VL
VH: B1 VH with F105Y, G107E
B20: X81-B01: codon optimized and germlined version of X63-G06 as a full length human IgG produced in CHO cells (antibody, chains of the INN, looked up, V domains shown)
VH: EVQLLESGGGLVQPGGSLRLSCAASGFTFSHYIMMWVRQAPGKGLEWVSGIYSSGGITVYADSVKGRFTISRDNSKNTLYLQMNSLRAEDTAVYYCAYRRIGVPRRDEFDIWGQGTMVTVSS
VL: DIQMTQSPSTLSASVGDRVTITCRASQSISSWLAWYQQKPGKAPKLLIYKASTLESGVPSRFSGSGSGTEFTLTISSLQPDDFATYYCQQYNTYWTFGQGTKVEIK
modifications: IgG
notes: codon optimized and germlined version of X63-G06 as a full length human IgG produced in CHO cells

Test system: not listed separately
Test: SDS-PAGE / mass spectrometry of expressed IgG: cleavage by host cell protease
Details: expressed in 293T cells, Table 9

Row | Molecule | Intact as an IgG?
1 | B1 | No
2 | B2 | No
3 | B3 | No
4 | B4 | No
5 | B5 | No
6 | B6 | No
7 | B7 | No
8 | B8 | No
9 | B9 | No
10 | B10 | Yes
11 | B11 | Yes
12 | B12 | Yes
13 | B13 | No
14 | B14 | No
15 | B15 | No
16 | B16 | Yes
17 | B17 | Yes
18 | B18 | No
19 | B19 | No

Test system: CLIPS peptides of pKal
Test: CLIPS epitope mapping (PEPSCAN-based ELISA)
Format: binding, human
Details: not given

Row | Molecule | CLIPS peptides bound
20 | B20 | C2, C3, C5 and the C6; also recorded: C2 (positions 81-94), C3 (positions 101-108), C5 (positions 162-178) and C6 (positions 186-197)
